This is one part of the list. Residues, ends and D or L forms follow the SMILES beside them. *: point of attachment. Cbz = O=C(OCc1ccccc1)*
What was measured:
Test in all cases: log2 fold change, soluble protein after heating vs DMSO (PISA); higher = thermal stabilisation; K562 cells, 10 uM, 30 min; active = over 0.2 and 3.5 SD of the protein, either way, in both replicates (recomputed)
[1] = compound: C1COCCN1CCN2C3=CC=CC=C3N=C2NC(=O)C4=CC(=CC=C4)[N+](=O)[O-] [IRAK-1-4 Inhibitor I]
Summary of the method: (§1)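 K562 cells at 2×10^6 cells/mL were given 10 μM compound for 30 min. Aliquots then went through 3 min of heating across 48°C-58°C, were pooled, and were extracted in PBS with 0.5% NP-40 at 4°C, and the supernatant after 21,000xg for 90 min was quantified by TMTpro 16plex LC-MS/MS with channel sums equalised. Thermal stability relative to control samples, from duplicates, is given as log2 fold change.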

Protein sequences, listed by entry. Tags and fused reporters are not part of them. Lines headed by an entry give the natural chain unless they say otherwise; changes in a name come on top.
UniProt P00403, whole entry, looked up: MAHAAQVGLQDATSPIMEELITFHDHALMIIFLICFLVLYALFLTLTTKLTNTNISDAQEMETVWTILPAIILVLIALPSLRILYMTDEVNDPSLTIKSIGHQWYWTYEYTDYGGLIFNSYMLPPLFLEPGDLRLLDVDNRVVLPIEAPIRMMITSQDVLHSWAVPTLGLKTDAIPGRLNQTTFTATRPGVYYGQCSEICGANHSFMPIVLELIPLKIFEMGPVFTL
UniProt Q9Y6C9: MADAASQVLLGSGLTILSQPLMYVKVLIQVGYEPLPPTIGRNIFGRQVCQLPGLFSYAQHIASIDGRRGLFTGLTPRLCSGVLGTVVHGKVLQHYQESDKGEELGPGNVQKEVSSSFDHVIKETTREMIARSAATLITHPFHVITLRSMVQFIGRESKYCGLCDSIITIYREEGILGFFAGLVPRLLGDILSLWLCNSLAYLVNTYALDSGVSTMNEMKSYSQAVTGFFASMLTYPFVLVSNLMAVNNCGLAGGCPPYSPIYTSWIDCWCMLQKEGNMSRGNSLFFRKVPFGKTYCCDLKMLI
UniProt Q96DH6: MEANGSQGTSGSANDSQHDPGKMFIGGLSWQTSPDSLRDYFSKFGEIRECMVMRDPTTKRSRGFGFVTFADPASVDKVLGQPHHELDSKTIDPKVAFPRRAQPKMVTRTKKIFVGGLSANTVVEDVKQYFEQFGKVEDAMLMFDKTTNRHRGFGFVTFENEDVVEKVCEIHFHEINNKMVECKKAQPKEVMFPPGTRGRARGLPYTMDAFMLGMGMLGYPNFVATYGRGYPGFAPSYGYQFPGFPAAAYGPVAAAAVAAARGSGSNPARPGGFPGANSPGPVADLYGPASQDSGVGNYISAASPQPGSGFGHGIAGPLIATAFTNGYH
UniProt Q9BT17: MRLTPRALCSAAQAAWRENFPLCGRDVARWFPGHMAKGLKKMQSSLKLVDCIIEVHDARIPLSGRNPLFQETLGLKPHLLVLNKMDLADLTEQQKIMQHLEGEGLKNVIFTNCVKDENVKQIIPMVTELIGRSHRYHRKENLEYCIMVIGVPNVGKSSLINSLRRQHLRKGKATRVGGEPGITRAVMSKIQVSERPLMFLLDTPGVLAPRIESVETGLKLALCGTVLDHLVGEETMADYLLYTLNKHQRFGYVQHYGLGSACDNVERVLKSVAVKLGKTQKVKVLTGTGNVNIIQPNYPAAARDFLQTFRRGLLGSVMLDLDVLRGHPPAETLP
UniProt Q9BUK6: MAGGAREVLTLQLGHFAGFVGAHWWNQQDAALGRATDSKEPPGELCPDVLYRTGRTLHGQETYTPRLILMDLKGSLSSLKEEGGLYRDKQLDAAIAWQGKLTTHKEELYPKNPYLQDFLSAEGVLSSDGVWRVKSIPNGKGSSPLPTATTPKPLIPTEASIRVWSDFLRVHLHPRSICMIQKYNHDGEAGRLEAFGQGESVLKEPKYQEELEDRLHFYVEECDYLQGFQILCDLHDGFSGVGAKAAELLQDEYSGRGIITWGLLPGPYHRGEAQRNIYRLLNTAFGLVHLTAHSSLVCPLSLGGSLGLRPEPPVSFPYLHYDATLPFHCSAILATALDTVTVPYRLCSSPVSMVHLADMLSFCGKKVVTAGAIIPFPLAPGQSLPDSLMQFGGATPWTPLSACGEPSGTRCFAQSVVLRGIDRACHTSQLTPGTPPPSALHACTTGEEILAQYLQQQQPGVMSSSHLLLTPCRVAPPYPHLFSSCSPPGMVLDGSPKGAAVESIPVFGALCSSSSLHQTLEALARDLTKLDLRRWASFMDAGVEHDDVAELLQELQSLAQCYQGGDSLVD
UniProt Q765P7: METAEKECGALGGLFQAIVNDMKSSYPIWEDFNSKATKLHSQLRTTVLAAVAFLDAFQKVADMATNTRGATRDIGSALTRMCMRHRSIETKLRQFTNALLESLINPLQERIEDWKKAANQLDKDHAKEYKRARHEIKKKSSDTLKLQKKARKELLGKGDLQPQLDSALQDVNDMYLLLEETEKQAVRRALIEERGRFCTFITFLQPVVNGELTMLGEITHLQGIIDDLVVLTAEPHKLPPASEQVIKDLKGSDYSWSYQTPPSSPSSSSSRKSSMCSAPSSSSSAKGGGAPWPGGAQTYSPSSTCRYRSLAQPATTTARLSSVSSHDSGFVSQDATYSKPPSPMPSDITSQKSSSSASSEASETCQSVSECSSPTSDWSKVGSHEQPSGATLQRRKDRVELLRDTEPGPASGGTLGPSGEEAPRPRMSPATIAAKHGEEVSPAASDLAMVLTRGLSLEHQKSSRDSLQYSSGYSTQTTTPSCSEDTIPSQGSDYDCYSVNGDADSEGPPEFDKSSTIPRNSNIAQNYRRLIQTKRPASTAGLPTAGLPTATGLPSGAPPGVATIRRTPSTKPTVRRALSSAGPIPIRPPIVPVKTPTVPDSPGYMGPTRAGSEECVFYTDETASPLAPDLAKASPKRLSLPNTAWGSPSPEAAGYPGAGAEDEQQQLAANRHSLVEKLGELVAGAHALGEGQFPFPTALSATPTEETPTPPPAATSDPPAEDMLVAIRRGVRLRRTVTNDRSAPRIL
UniProt O43347: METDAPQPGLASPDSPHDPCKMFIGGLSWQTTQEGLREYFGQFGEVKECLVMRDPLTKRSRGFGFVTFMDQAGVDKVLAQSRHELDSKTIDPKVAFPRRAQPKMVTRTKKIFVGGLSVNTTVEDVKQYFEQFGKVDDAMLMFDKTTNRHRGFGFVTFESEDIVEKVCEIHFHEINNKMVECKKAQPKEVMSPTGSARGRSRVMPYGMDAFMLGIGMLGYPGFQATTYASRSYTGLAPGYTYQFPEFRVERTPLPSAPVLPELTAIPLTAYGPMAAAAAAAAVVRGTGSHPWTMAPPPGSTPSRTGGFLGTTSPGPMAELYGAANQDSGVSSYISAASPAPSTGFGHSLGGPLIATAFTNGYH
UniProt Q969H8: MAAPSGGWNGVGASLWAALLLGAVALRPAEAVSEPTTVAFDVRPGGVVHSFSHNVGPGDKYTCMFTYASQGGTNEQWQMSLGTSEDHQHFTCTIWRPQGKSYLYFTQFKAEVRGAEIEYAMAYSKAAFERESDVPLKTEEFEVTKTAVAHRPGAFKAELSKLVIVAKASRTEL
UniProt P11586, whole entry, looked up: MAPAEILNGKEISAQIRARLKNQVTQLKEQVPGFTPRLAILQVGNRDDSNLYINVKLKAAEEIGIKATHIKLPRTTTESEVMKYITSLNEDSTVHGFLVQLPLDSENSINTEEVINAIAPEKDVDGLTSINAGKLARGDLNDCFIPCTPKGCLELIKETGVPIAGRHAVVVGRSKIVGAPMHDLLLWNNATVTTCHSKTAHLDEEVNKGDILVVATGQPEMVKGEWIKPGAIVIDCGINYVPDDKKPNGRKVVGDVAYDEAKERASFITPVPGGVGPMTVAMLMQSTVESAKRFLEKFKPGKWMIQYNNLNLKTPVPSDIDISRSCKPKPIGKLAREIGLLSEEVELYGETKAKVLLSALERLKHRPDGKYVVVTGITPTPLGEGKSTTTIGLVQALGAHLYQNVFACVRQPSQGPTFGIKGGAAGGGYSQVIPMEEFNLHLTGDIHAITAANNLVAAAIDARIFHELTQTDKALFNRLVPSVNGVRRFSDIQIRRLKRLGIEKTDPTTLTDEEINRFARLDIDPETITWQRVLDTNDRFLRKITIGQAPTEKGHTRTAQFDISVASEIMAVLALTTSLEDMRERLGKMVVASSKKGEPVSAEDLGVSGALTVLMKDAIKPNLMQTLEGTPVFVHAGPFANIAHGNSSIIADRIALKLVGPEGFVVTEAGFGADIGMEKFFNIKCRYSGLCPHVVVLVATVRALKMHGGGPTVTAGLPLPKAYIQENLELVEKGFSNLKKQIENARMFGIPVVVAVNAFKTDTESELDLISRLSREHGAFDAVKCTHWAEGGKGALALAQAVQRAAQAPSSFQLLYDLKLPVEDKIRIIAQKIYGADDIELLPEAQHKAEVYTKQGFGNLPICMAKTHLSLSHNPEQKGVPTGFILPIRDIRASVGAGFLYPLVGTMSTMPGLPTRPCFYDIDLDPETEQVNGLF
UniProt Q96E11: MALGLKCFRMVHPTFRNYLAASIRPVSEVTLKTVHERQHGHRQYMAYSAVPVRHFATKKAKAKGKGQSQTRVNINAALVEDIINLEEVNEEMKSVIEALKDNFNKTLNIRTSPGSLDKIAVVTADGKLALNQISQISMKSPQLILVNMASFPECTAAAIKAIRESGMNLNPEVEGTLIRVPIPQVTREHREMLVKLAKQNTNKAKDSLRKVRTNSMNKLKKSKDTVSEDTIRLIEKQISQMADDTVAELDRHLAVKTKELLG
UniProt P03905, whole entry, looked up: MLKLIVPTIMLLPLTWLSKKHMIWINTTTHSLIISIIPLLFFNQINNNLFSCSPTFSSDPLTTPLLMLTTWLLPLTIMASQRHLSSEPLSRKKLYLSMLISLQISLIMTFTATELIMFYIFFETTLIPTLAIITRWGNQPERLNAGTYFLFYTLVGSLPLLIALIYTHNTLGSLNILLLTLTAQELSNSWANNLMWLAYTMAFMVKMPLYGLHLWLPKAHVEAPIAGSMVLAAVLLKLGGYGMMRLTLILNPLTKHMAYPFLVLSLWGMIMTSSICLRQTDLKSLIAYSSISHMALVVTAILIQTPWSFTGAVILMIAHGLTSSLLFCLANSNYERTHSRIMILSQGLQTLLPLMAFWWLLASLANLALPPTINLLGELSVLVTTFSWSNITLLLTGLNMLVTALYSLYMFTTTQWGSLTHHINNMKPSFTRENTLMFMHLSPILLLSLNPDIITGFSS
UniProt Q99836, whole entry, looked up: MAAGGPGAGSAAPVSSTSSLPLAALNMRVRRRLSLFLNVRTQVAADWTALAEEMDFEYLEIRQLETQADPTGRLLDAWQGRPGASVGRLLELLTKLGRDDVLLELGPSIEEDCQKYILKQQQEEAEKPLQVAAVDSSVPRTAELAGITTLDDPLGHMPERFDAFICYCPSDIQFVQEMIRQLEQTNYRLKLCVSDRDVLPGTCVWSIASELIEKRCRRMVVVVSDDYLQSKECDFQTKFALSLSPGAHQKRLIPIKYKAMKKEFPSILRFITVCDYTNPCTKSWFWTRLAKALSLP
UniProt Q9BRK3: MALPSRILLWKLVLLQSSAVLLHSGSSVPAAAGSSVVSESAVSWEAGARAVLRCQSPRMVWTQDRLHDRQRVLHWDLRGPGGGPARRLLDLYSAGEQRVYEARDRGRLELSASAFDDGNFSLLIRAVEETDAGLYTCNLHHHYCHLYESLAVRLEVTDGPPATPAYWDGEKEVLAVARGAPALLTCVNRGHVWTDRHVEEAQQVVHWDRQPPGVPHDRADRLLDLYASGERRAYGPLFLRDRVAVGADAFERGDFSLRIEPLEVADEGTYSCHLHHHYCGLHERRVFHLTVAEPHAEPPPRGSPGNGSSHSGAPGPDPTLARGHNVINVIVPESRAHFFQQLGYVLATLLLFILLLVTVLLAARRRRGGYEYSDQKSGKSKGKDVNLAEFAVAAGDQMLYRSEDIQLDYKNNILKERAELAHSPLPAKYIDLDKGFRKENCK
UniProt P84157: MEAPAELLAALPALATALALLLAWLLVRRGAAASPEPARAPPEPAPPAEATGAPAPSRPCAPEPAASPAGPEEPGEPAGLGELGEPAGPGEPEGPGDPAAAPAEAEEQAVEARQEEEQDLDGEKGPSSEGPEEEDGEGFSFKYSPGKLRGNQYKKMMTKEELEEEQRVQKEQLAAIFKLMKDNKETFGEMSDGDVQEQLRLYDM

[2] = compound: C=CC(=O)N1CCC[C@@H](n2nc(-c3ccc(Oc4ccccc4)cc3)c3c(N)ncnc32)C1 [ibrutinib]
Summary of the method: as §1

[3] = compound: CC(=O)c1cnc2ccc(-c3cc(Cl)c(O)c(Cl)c3)nc2c1N[C@H]1CC[C@H](CN(C)C)CC1
Summary of the method: as §1

[4] = compound: CC(C)(C)Cn1c(N)nc2ccc(-c3[nH]c(C(C)(C)C)nc3-c3ccc(F)cc3)nc21 [ralimetinib]
Summary of the method: as §1

[5] = compound: CC(C)(O)CC(=O)NCCn1ccc2ncnc(Nc3ccc(Oc4cccc(C(F)(F)F)c4)c(Cl)c3)c21
Summary of the method: as §1

[6] = compound: CC(C)C1=C2N=C(C=C(N2N=C1)NCC3=CC=CC=C3)NCCCCCCN
Summary of the method: as §1

[7] = compound: CC(C)C[C@@H](C=O)NC(=O)[C@H](CC(C)C)NC(=O)[C@H](CC(C)C)NC(=O)OCc1ccccc1
Summary of the method: as §1

[8] = compound: CC(C)N(C[C@H]1O[C@@H](n2cnc3c(N)ncnc32)[C@H](O)[C@@H]1O)[C@H]1C[C@@H](CCc2nc3cc(C(C)(C)C)ccc3[nH]2)C1 [pinometostat]
Summary of the method: as §1

[9] = compound: CC1=C(C(CC(=O)N1)C2=CC=C(C=C2)C(F)(F)F)C(=O)NC3=C(C=C4C(=C3)C=NN4)F
Summary of the method: as §1

[10] = compound: CC1=C(C2=C(C=C1)C(=O)C3=CC=CC=C3N2CCCN)C
Summary of the method: as §1

Target | log2 fold change [1] | log2 fold change [2] | log2 fold change [3] | log2 fold change [4] | log2 fold change [5] | log2 fold change [6] | log2 fold change [7] | log2 fold change [8] | log2 fold change [9] | log2 fold change [10]
MT-CO2 (UniProt P00403) | inactive: 0.053 | inactive: -0.075 | inactive: -0.059 | inactive: -0.188 | inactive: -0.028 | inactive: -0.073 | inactive: -0.071 | inactive: 0.009 | inactive: -0.026 | inactive: -0.022
MTCH2 (UniProt Q9Y6C9) | inactive: 0.074 | inactive: 0.031 | inactive: -0.028 | inactive: -0.051 | inactive: 0.023 | inactive: -0.015 | inactive: -0.017 | inactive: -0.001 | inactive: 0.026 | inactive: 0.005
MSI2 (UniProt Q96DH6) | inactive: -0.1 | inactive: 0.103 | inactive: -0.031 | inactive: 0.017 | inactive: 0.03 | inactive: -0.015 | inactive: 0.132 | inactive: 0.036 | inactive: 0.018 | inactive: -0.059
MTG1 (UniProt Q9BT17) | inactive: 0.078 | inactive: -0.019 | inactive: -0.091 | inactive: -0.057 | inactive: 0.26 | inactive: 0.065 | inactive: 0.047 | inactive: 0.029 | inactive: 0.067 | inactive: 0
MVB12A (UniProt Q96EY5) | inactive: -0.014 | inactive: 0.039 | inactive: -0.244 | inactive: -0.065 | inactive: -0.229 | inactive: -0.127 | inactive: 0.037 | inactive: 0.061 | inactive: 0.058 | inactive: 0.099
MRPS9 (UniProt P82933) | inactive: -0.061 | inactive: 0.024 | inactive: -0.022 | inactive: -0.023 | inactive: 0.001 | inactive: -0.059 | inactive: 0.07 | inactive: 0.018 |  | active: -0.243
MRPS7 (UniProt Q9Y2R9) | inactive: -0.083 | inactive: 0.043 | inactive: -0.004 | inactive: -0.019 | inactive: -0.024 | inactive: -0.021 | inactive: 0.078 | inactive: 0.025 | inactive: -0.05 | inactive: -0.107
MSTO1 (UniProt Q9BUK6) | inactive: 0.012 | inactive: 0.009 | inactive: -0.003 | inactive: -0.028 | inactive: -0.162 | inactive: -0.105 | inactive: -0.003 | inactive: -0.002 |  | inactive: 0.043
MTSS2 (UniProt Q765P7) | inactive: 0.092 | inactive: -0.048 | inactive: -0.011 | inactive: -0.01 | inactive: -0.005 | inactive: -0.024 | inactive: 0.02 | inactive: 0.044 | inactive: 0.066 | inactive: 0.104
MSI1 (UniProt O43347) | inactive: -0.043 | inactive: 0.036 | inactive: -0.027 | inactive: 0.121 | inactive: -0.01 | inactive: 0.102 | inactive: -0.028 | inactive: 0.107 | inactive: 0.035 | inactive: -0.072
MRPL9 (UniProt Q9BYD2) | inactive: -0.156 | inactive: -0.044 | inactive: 0.074 | inactive: 0.089 | inactive: -0.007 | inactive: 0.01 | inactive: 0.071 | inactive: 0.06 | inactive: -0.03 | inactive: -0.027
MRPS17 (UniProt Q9Y2R5) | inactive: -0.192 | inactive: 0.06 | inactive: -0.029 | inactive: 0.032 | inactive: -0.054 | inactive: 0.014 | inactive: 0.025 | inactive: -0.027 |  | inactive: -0.2
MRPS28 (UniProt Q9Y2Q9) | inactive: -0.036 | inactive: 0.033 | inactive: 0.003 | inactive: 0.038 | inactive: 0.015 | inactive: 0.032 | inactive: 0.262 | inactive: 0.016 | inactive: 0.013 | inactive: -0.137
MRPS35 (UniProt P82673) | inactive: -0.035 | inactive: 0.004 | inactive: -0.082 | inactive: -0.035 | inactive: -0.047 | inactive: -0.024 | inactive: 0.083 | inactive: 0.078 |  | inactive: -0.186
MRPL58 (UniProt Q14197) | inactive: -0.093 | inactive: 0.01 | inactive: 0.098 | inactive: 0.025 | inactive: 0.008 | inactive: 0.022 | inactive: 0.075 | inactive: 0.072 | inactive: 0.024 | inactive: -0.035
MYDGF (UniProt Q969H8) | inactive: 0.09 | inactive: 0.012 | inactive: 0.022 | inactive: -0.049 | inactive: 0.031 | inactive: 0.065 | inactive: -0.027 | inactive: -0.045 | inactive: 0.015 | inactive: -0.021
MTHFD1 (UniProt P11586) | inactive: 0.01 | inactive: -0.014 | inactive: -0.068 | inactive: -0.001 | inactive: -0.082 | inactive: -0.102 | inactive: -0.005 | inactive: -0.034 |  | inactive: 0.073
MRRF (UniProt Q96E11) | inactive: -0.008 | inactive: -0.044 | inactive: -0.084 | inactive: -0.006 | inactive: -0.065 | inactive: 0.037 | inactive: -0.013 | inactive: -0.027 | inactive: -0.032 | inactive: -0.014
MT-ND4 (UniProt P03905) | inactive: -0.005 | inactive: -0.092 | inactive: -0.236 | inactive: -0.06 | inactive: -0.094 | inactive: -0.124 | inactive: -0.054 | inactive: -0.135 |  | inactive: 0.056
MTOR (UniProt P42345) | inactive: -0.029 | inactive: -0.03 | inactive: 0.183 | inactive: 0.011 | inactive: -0.084 | active: -0.288 | inactive: -0.002 | inactive: 0.046 |  | inactive: 0.014
MYD88 isoform 6 (UniProt Q99836) | inactive: -0.312 | inactive: -0.047 | inactive: -0.066 |  | inactive: -0.052 |  |  | inactive: 0.216 | inactive: 0.116 | 
MXRA8 isoform 2 (UniProt Q9BRK3) | inactive: 0.054 | inactive: 0.128 | inactive: -0.16 | inactive: -0.016 | inactive: -0.162 | inactive: 0.083 | inactive: -0.083 | inactive: -0.018 |  | inactive: 0.021
MRPS24 (UniProt Q96EL2) | inactive: -0.048 | inactive: 0.009 | inactive: -0.071 | inactive: -0.086 | inactive: -0.094 | inactive: -0.159 | inactive: 0.051 | inactive: 0.002 |  | inactive: -0.227
MRPS26 (UniProt Q9BYN8) | inactive: -0.09 | inactive: 0.008 | inactive: 0.007 | inactive: -0.049 | inactive: -0.143 | inactive: 0.03 | inactive: 0.137 | inactive: 0.037 |  | inactive: -0.133
MRPS33 (UniProt Q9Y291) | inactive: -0.006 | inactive: 0.022 | inactive: -0.004 | inactive: -0.038 | inactive: -0.069 | inactive: -0.034 | inactive: 0.122 | inactive: 0.096 |  | inactive: -0.158
MT-CO1 (UniProt P00395) | inactive: 0.083 | inactive: 0.054 | inactive: 0.38 | inactive: -0.082 |  | inactive: 0.017 | inactive: -0.012 | inactive: -0.066 | inactive: -0.015 | inactive: -0.149
MRPS10 (UniProt P82664) | inactive: -0.024 | inactive: 0.02 | inactive: -0.065 | inactive: -0.031 | inactive: 0.01 | inactive: -0.027 | inactive: 0.066 | inactive: 0.045 |  | inactive: -0.28
MXRA7 (UniProt P84157) | inactive: 0.098 | inactive: 0.048 | inactive: -0.064 | inactive: -0.012 | inactive: 0.116 | inactive: 0.075 | inactive: -0.083 | inactive: -0.049 |  | inactive: -0.045

No new results follow: entries from further up.
Target | log2 fold change [1] | log2 fold change [2] | log2 fold change [3] | log2 fold change [4] | log2 fold change [5] | log2 fold change [6] | log2 fold change [7] | log2 fold change [8] | log2 fold change [9] | log2 fold change [10]
MTOR (UniProt P42345) | inactive: -0.029 | inactive: -0.03 | inactive: 0.183 | inactive: 0.011 | inactive: -0.084 | active: -0.288 | inactive: -0.002 | inactive: 0.046 |  | inactive: 0.014
MYD88 isoform 6 (UniProt Q99836) | inactive: -0.312 | inactive: -0.047 | inactive: -0.066 |  | inactive: -0.052 |  |  | inactive: 0.216 | inactive: 0.116 | 
